Data on one compound can be found in patent US7393939B2, “Placental organic anion transporter and gene thereof” (Japan Science and Technology Corporation, priority 1999, dated 2008).

This assay concerns the target T1, OAT4 (Homo sapiens, UniProt Q9NSA0).
T1 construct: cRNA (an RNA complementary to cDNA) was prepared from a plasmid containing this cDNA; expressed in transfected cells; host or cells: Xenopus laevis oocytes injected with OAT4 cRNA (transcribed in vitro with T7 RNA polymerase from plasmid pZL holding the hOAT4 cDNA)
T1 sequence (Q9NSA0 1-550): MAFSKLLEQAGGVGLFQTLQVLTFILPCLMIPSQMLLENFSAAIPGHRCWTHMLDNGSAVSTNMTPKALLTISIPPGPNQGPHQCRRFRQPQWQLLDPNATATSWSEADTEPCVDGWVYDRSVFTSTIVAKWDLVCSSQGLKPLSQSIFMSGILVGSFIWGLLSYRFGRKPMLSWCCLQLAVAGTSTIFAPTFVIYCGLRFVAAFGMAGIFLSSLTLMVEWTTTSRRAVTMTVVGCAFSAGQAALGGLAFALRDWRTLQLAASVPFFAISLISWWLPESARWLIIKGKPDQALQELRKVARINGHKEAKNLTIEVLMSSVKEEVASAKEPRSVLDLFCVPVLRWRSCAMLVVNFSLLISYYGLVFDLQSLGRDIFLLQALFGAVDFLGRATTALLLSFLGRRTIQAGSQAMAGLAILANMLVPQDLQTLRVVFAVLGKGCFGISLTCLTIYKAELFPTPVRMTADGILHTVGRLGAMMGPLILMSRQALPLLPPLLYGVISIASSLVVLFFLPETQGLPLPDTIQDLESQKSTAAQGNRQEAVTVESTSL
In words: Inhibition experiment: ^3H-estrone sulfate uptake in OAT4 cRNA-injected oocytes with various compounds. It counts as cell-based. The note with it: 50 nM ^3H-estrone sulfate; 500 μM unlabeled compound; FIG. 4. The procedure: Further, in order to investigate the substrate selectivity of OAT4 of the present invention, various ionic substances were added to an incorporation experimental system of ^3H-estrone sulfate and the influence thereby was tested (Inhibition Experiment).
In order to further investigate the substrate selectivity of OAT4, various anionic substances were added to a system in an uptake experiment system of ^3H-estrone sulfate in oocytes into which OAT4 cRNA was injected and the influence was investigated (inhibition experiment). An uptake experiment of ^3H-estrone sulfate was carried out according to the above-mentioned method using oocytes into which OAT4 cRNA was injected. Uptake of 50 nM ^3H-estrone sulfate was measured in the presence and absence of 500 μM of various compounds (unlabeled).

With `NS(=O)(=O)c1cc(C(=O)O)c(NCc2ccco2)cc1Cl` [furosemide], the “inhibition of transport of ^3H-estrone sulfate by OAT4” value is “significantly inhibited”.
